Results of single-concentration screens

Protein sequences, listed by entry. Tags and fused reporters are not part of them. Residues count along the entry.
UniProt I6X8D2, whole entry: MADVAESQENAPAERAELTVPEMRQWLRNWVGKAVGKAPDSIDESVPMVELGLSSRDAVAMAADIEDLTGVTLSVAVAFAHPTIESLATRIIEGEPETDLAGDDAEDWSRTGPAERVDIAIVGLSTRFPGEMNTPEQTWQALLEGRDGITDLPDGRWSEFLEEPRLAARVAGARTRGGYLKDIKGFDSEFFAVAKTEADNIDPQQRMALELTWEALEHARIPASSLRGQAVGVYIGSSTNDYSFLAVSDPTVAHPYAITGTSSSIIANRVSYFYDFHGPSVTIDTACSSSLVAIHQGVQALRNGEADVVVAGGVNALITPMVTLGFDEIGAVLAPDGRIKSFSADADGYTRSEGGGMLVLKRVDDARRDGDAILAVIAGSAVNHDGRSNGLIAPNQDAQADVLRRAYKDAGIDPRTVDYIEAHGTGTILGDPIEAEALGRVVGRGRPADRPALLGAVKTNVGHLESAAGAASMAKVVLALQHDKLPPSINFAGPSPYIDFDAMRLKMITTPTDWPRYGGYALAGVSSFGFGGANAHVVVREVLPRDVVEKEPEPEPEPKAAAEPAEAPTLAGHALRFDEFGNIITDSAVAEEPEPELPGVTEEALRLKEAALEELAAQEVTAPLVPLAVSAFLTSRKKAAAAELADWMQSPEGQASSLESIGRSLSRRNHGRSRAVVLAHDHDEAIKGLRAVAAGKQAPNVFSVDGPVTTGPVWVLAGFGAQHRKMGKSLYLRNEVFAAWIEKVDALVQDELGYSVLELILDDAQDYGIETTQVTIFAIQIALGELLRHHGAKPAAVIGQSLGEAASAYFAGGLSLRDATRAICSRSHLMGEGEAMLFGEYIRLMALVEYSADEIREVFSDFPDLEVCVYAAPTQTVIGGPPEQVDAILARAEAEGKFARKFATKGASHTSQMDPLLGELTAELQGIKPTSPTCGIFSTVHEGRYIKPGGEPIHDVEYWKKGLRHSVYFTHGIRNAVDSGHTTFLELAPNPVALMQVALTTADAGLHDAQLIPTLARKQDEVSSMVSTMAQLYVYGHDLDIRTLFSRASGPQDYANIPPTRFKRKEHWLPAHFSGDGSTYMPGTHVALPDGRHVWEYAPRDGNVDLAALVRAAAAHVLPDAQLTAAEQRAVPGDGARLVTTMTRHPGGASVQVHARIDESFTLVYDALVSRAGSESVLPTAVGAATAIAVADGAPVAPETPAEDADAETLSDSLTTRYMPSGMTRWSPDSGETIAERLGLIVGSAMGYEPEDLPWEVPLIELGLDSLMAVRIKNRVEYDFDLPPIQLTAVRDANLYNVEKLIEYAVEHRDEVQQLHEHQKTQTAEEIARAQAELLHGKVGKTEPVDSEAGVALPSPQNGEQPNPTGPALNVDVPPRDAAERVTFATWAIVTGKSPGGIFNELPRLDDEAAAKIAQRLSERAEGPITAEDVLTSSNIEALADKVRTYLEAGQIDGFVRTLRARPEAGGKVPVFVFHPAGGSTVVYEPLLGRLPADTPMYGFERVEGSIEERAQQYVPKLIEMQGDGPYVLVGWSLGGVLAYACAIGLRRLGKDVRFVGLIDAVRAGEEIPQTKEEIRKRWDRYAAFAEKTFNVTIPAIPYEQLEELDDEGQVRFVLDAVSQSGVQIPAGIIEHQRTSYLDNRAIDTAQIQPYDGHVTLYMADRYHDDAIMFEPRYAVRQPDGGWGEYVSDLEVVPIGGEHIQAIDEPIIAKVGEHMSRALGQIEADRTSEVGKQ
UniProt Q8IDJ8, 1-583: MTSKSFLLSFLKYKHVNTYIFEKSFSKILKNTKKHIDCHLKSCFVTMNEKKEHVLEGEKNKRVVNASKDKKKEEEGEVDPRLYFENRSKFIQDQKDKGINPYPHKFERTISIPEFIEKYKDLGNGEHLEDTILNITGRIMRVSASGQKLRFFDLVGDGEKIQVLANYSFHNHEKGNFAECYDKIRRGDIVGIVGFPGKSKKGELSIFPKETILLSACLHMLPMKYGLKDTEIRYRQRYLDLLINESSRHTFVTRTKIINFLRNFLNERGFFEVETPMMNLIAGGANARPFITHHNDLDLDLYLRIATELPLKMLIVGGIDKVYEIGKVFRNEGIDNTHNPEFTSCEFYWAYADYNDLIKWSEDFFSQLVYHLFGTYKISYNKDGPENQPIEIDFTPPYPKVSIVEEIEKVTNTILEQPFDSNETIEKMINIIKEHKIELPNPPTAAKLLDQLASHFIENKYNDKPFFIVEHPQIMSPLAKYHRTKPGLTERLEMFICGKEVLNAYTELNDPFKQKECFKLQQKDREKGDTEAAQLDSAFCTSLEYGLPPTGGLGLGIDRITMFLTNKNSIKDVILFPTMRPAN
UniProt P9WNZ1, whole entry: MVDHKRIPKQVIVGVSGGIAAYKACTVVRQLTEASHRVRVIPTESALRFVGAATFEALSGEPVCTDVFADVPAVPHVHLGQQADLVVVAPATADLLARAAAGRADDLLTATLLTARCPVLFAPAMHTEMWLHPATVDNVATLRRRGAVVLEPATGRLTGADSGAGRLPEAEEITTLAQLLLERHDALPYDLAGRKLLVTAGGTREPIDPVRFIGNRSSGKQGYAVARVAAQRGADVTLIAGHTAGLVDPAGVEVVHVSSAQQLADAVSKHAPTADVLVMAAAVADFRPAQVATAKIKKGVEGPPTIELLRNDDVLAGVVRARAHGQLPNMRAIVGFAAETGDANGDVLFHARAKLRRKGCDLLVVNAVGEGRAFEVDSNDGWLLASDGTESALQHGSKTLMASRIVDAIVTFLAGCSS

From ChEMBL document CHEMBL3988442, “University of Dundee, Small-Polar-MMV Screening Library” (2021).

Values are the deposited “Percent Effect”, in %. How 0% and 100% were set is not recorded. Most values in the screen are low, and negative values occur. The compounds are a random part of those screened.

Pks13 thioesterase: 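Enzyme assay of the thioesterase domain of polyketide synthase 13; the read-out is not stated. Target: Polyketide synthase Pks13, Mycobacterium tuberculosis (UniProt I6X8D2). Tested at 30 µM. Higher reads as stronger inhibition (inferred from which compounds were picked for retests). About 67,000 compounds were tested under these conditions; 0.46% (about 300) showed 50% or more at least once.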
PfKRS1: 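Lysine-tRNA ligase, Plasmodium falciparum 3D7 (UniProt Q8IDJ8). Enzyme assay of the cytosolic lysyl-tRNA synthetase in 384-well plates, read by luminescence. Tested at 30 µM. Higher reads as stronger inhibition, judged from the few compounds that gave an IC50. Size under these conditions: about 69,000 compounds, about 49 of them at 50% or above in at least one test.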
CoaBC: 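Enzyme assay of CoaBC with a phosphate dye (Biomol Green) read at 650 nm. Target: Coenzyme A biosynthesis protein CoaBC, Mycobacterium tuberculosis (UniProt P9WNZ1). Tested at 30 µM. Higher reads as stronger inhibition, judged from the few compounds that gave an IC50. Most strong results did not repeat in a second test. Size under these conditions: about 67,000 compounds, about 40 of them at 50% or above in at least one test.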

CCN(CC)CC(=O)N(C)C(c1cccc(F)c1)c1ccccn1 (stereo not given) read Pks13 thioesterase: -19%; PfKRS1: -0.9405%; CoaBC: -2.628%. CCCN(C(=O)CNC1CCc2ncnn2C1)C1=CCCCC1 (stereo not given) gave Pks13 thioesterase: 1.715%; PfKRS1: 4.993%; CoaBC: -0.8147%. With O=C(COCc1ccccc1)N1CCN(Cc2ccccc2F)C(=O)C1 the screen gave Pks13 thioesterase: -18.12%; PfKRS1: 1.655%; CoaBC: 0.6173%. For Cc1nc(CNC(C(=O)N2CCOCC2)c2ccccc2)cs1 (stereo not given) the result was Pks13 thioesterase: -30.62%; PfKRS1: 2.082%; CoaBC: 1.463%. For CC(=O)c1cccc(OCC(=O)NS(=O)(=O)c2cccs2)c1 the result was Pks13 thioesterase: 0.1181%; PfKRS1: -0.5919%; CoaBC: 2.625%. CC(C)N1[C@H](Cn2cncn2)C[C@@H]2CN(Cc3cccs3)CC[C@@H]21 read Pks13 thioesterase: 2.623%; PfKRS1: -1.715%; CoaBC: 1.97%. Result for COCC1c2nnn(CC3CC3)c2CCN1C(=O)Cc1cccs1 (stereo not given) was Pks13 thioesterase: -10.52%; PfKRS1: 3.434%; CoaBC: 6.167%.

With CC1c2ncc(Cn3cncn3)n2CCN1C(=O)Cc1cccs1 (stereo not given) the screen gave Pks13 thioesterase: -28.66%; PfKRS1: 4.171%; CoaBC: 3.893%. Result for O=C(NCc1ccc(Cl)cc1Cl)NCC1(O)CCSC1 (stereo not given) was Pks13 thioesterase: -6.43%; PfKRS1: 2.353%; CoaBC: -1.449%. CC(C)(C)CC(=O)N[C@@H]1CO[C@H](CNC(=O)c2ccncc2)[C@H]1O read Pks13 thioesterase: -6.929%; PfKRS1: 6.588%; CoaBC: 7.662%. For CCN1CCCC(c2cc(Nc3cnccn3)nc(C)n2)C1 (stereo not given) the result was Pks13 thioesterase: -10.64%; PfKRS1: 1.057%; CoaBC: 0.1239%. Result for Fc1ccc(NC2CCCN(Cc3ccncc3)C2)cc1 (stereo not given) was Pks13 thioesterase: -6.063%; PfKRS1: -4.607%; CoaBC: -0.3727%. Result for COCCN1CCO[C@H]2[C@H](OCc3cccc(C)n3)CC[C@@H]21 was Pks13 thioesterase: -23.86%; PfKRS1: 2.689%; CoaBC: 2.581%. For CNS(=O)(=O)CC(=O)N1CCCc2cc(Br)ccc21 the result was Pks13 thioesterase: -13.21%; PfKRS1: -3.992%; CoaBC: 0.6402%.

For CC(=O)N1N=C(c2ccco2)OC1C(=O)N(CC(C)C)CC(C)C (stereo not given) the result was Pks13 thioesterase: -6.839%; PfKRS1: 1.68%; CoaBC: -0.2427%. CC(C)COCC(NC(=O)c1ccncc1)c1ccco1 (stereo not given) read Pks13 thioesterase: -8.016%; PfKRS1: 0.4305%; CoaBC: 1.513%. With Cc1cc(C)nc(N2CC=C[C@@H]2C(=O)NCc2ccc3c(c2)OCO3)n1 the screen gave Pks13 thioesterase: -0.4409%; PfKRS1: 2.499%; CoaBC: 0%. Result for COCC(=O)N1CCN(Cc2cccnc2)c2ncccc2C1 was PfKRS1: -1.462%; CoaBC: -2.343%. Result for Cc1ccc(F)cc1C(=O)N1CCOCC12CCCC2 was Pks13 thioesterase: 0.455%; PfKRS1: 4.388%; CoaBC: 3.704%. Result for Cc1nn(CCC(=O)NC(C(=O)O)c2c(C)n[nH]c2C)c(C)c1C (stereo not given) was Pks13 thioesterase: -12.24%; PfKRS1: 1.188%; CoaBC: -0.7426%. For c1cc(NCc2cscn2)cc(OCCN2CCCCC2)c1 the result was Pks13 thioesterase: -13.41%; PfKRS1: 0.4998%; CoaBC: 3.382%.

For CC1(NC(=O)Cc2csc(NC(=O)c3ccccc3)n2)CCS(=O)(=O)C1 (stereo not given) the result was Pks13 thioesterase: 51.1%; PfKRS1: 3.921%; CoaBC: 3.201%. Cc1ccccc1C(=O)Nc1cnn(CC(=O)NC2CCCC2)c1 read Pks13 thioesterase: -9.703%; PfKRS1: 3.762%; CoaBC: -10.11%. With CN1CCN(C(=O)c2cccn2C)Cc2cccnc21 the screen gave Pks13 thioesterase: -6.174%; PfKRS1: -0.1651%; CoaBC: -4.316%. Result for CC(C)CC(=O)Nc1ccccc1Oc1ccsc1C(=O)O was Pks13 thioesterase: -11.89%; PfKRS1: 4.76%; CoaBC: -4.373%. With Cc1nc(O)cc(C2CCN(Cc3cccc(F)c3F)C2)n1 (stereo not given) the screen gave Pks13 thioesterase: -23.97%; PfKRS1: -1.148%; CoaBC: 3.333%. Cc1ccc2c(ccn2CCC(=O)NC[C@@H]2CCCN3CCCC[C@H]23)c1 read Pks13 thioesterase: -34.7%; PfKRS1: 6.962%; CoaBC: 11.44%. For CCC(C)CS(=O)(=O)NC(=O)C1CCC1 (stereo not given) the result was Pks13 thioesterase: 12.36%; PfKRS1: -2.905%.

COc1ccc(-n2ccc(C(=O)N(CCN(C)C)C(C)C)n2)cc1 read Pks13 thioesterase: -5.249%; PfKRS1: -3.843%; CoaBC: 1.211%. Result for CCc1cc(CN(C)C(=O)CN2CC(Cc3ccccc3)CC2=O)on1 (stereo not given) was Pks13 thioesterase: -17.92%; PfKRS1: 1.966%; CoaBC: 7.229%. CN(Cc1ccco1)C(=O)C1CSCN1C(=O)C1CCC1 (stereo not given) gave Pks13 thioesterase: -6.79%; PfKRS1: 0.06916%; CoaBC: 2.628%. For COCCN(C)CCN1CC2(CCN(C(=O)C3CCOC3)CC2)OC1=O (stereo not given) the result was Pks13 thioesterase: -8.544%; PfKRS1: 0.3064%; CoaBC: 0.4545%. With Cc1cc(CNC(=O)NC(C)c2ccccc2)no1 (stereo not given) the screen gave Pks13 thioesterase: -21.86%; PfKRS1: 4.044%; CoaBC: -3.532%. For CC(C)c1nsc(N2CCn3c(nnc3C(F)(F)F)C2)n1 the result was PfKRS1: 0.3454%; CoaBC: -3.212%. CC(=O)N1CCCN(C(=O)NCC2(c3cccs3)CCCC2)CC1 gave Pks13 thioesterase: -27.78%; PfKRS1: -3.021%; CoaBC: 1.786%.

CN1CCOC(CNC(=O)CCCc2ccccc2)C1 (stereo not given) read Pks13 thioesterase: -37.72%; PfKRS1: 4.965%; CoaBC: 3.439%. Cc1nnc(C(C)N2CCN(Cc3ccc(C(F)(F)F)cc3)CC2)o1 (stereo not given) read Pks13 thioesterase: -2.403%; PfKRS1: 1.314%; CoaBC: 1.096%. Cc1nc(NC(=O)NCc2nc3cccc(C)c3n2C)oc1C read Pks13 thioesterase: -5.513%; PfKRS1: 0.7505%; CoaBC: -16.38%.

For reference, 2 entries once more:

structure,Pks13 thioesterase,PfKRS1,CoaBC
CCCN(C(=O)CNC1CCc2ncnn2C1)C1=CCCCC1 (stereo not given),1.715,4.993,-0.8147
CNS(=O)(=O)CC(=O)N1CCCc2cc(Br)ccc21,-13.21,-3.992,0.6402